Experimental data: patent US7393865B2, “Sleep inducing compounds and methods relating thereto” (Neurocrine Biosciences, Inc., priority 2004, dated 2008)
Some results were stated once for a whole list of compounds, not compound by compound.

Chains of the proteins cited; added tags and fusions are not shown.
UniProt P35367, whole entry: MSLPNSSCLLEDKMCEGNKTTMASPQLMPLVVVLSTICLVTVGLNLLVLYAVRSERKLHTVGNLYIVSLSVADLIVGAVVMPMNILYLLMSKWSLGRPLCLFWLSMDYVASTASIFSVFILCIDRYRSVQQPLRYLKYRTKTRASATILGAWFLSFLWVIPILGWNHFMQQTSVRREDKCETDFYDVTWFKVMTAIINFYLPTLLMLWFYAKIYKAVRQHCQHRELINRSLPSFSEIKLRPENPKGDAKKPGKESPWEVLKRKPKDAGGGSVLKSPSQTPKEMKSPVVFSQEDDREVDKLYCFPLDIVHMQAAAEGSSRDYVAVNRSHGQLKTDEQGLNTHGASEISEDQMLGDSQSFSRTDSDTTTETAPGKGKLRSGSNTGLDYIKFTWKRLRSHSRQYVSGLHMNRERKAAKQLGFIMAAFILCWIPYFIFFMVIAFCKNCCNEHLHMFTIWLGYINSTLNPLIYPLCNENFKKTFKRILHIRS

Target: T1, human H1 receptor (Homo sapiens, UniProt P35367)
T1 construct: expressed in transfected cells; host or cells: CHO cells (crude membranes)
Assay: Human histamine H1 receptor binding assay
Conditions: competition with 1.5 nM [pyridinyl-5-3H] Pyrilamine, crude membranes of CHO cells transfected with human H1 receptor; Ki from IC50 by Cheng-Prusoff
Experimental: Compounds of the present invention may be evaluated for binding to the histamine H1 receptor by a standard binding assay. […] Pyrilamine (˜30 Ci/mmol, Amersham TRK608) in the presence of varying concentrations of competing ligand. Non-specific binding is determined in the presence of excess (1 μM) doxepin. Bound and free ligand are separated by rapid vacuum filtration using a Packard 96-well cell harvester onto UniFilter GF/C filter plates (PerkinElmer) that has been pretreated with 1% polyethyleneimine. The filter plates are then washed with 600 μl phosphate buffered saline containing 0.01% (v/v) Triton-X100. Bound radioligand is determined by scintillation counting using a TopCount-NXT (Packard). Binding data is analyzed by nonlinear, least-squares curve fitting algorithms using GraphPad Prism (GraphPad Software, Inc. San Diego, Calif.) or ActivityBase (IDBS, Guildford, Surrey, UK).

Dimethyl-(2-{3-[(R)-1-(3-methyl-pyridin-2-yl)-ethyl]-benzo[b]thiophen-2-yl}-ethyl)-amine [Compound 6-11]
Ki: ≤ 1000 nM
